This is an account of results in PubChem BioAssay AID2685 (National Center for Advancing Translational Sciences (NCATS), 2010).

The list shows a part of the results. Shown are side measurements of this screen, not its main read-out; they come without a call. Most of these compounds were active or inconclusive in the main read-out, so they are no random draw. Words in brackets tell the shape of the fitted curve; partial curves, single points and poor fits give uncertain potencies.

This test is described as follows: qHTS Assay for Lipid Storage Modulators in Drosophila S3 Cells.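 For cell number change: cells counted by Cell Tracker Red CMTPX staining in the red channel.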 The settings on record: BODIPY lipid droplet fluorescence, 18-24 h; for cell number change: measured here: cell count max response, cells fed with added oleic acid. The method in brief: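 Drosophila S3 cells got compounds at several concentrations plus oleic acid (400 uM solution). Laser-scanning cytometry with 488 nm excitation read lipid droplets at 500-530 nm and cells at 575-640 nm. Percent activity was relative to 20 uM Triacsin C.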
On the technique in general: Quantitative high-throughput screening tests each substance at several concentrations.

The mark [1] stands for this setting: measured here: cell number channel AC50, cells fed with added oleic acid.
[2] abbreviates: measured here: lipid fluorescence (Fed channel) AC50, cells fed with added oleic acid.

For `CN(C)S(=O)(=O)c1cccc(-c2nnc(SCc3cc(Cl)cc4c3OCOC4)n2N)c1`, the AC50 (commonly the concentration giving half of the maximal activity seen) is 6.51 µM [rising, single point] under setting [1] and 5.17 µM [rising, full curve, poor fit] under setting [2].
For the compound `Clc1ccc(CN2CCC(Cc3ccccc3)CC2)cc1`, the cell number change was -32.8%. Further, under setting [1], the concentration at half-maximal activity (AC50) was 8.2 µM [falling, partial curve]. Further, the AC50 under setting [2] is 8.2 µM [falling, partial curve, poor fit].
For `COc1ccc(C(=O)NCC(=O)N/N=C/c2c(C)[nH]c3ccccc23)cc1OC`, under setting [2], the AC50 was 3.66 µM [rising, full curve, poor fit].
Take `O=C(CN1CCOCC1)Nc1cc(Cl)ccc1Cl`: the cell number change was -18.7%. Besides, the concentration at half-maximal activity (AC50) under setting [2] is 29.1 µM [rising, single point].
Consider `CCOC(=O)CCP(=O)(O)C(O)c1ccccc1` (centres undefined), for which the cell number change is -26.8%.
Consider `CC(C)(C)c1ccc(OCCn2ccccc2=O)cc1`, for which the cell number change was determined as 73.3%. Also, the AC50 under setting [1] is 29.1 µM [rising, single point]. Moreover, under setting [2], the concentration at half-maximal activity (AC50) was 20.6 µM [rising, partial curve].
Regarding `CCOc1ccc(N(C(=O)c2snc(C(N)=O)c2N)C(C)C(=O)NC2CCCCC2)cc1` (centres undefined), the cell number change worked out at 27.8%.
As to `Cc1ccc(OCC(O)CNS(=O)(=O)c2ccccc2C(=O)N2CCCCC2)cc1` (centres undefined), under setting [1], the half-maximal activity concentration (AC50) was 0.0731 µM [falling, full curve, poor fit].
For `CC(=O)c1ccc(OCC(=O)N(CCC2=CCCCC2)c2c(N)n(Cc3ccccc3)c(=O)[nH]c2=O)cc1`, the cell number change is -28.3%. The AC50 under setting [2] was 29.1 µM [falling, partial curve, poor fit].
On to `Cc1ccc2cc(CN(Cc3cccs3)Cc3nnnn3CC3CCCO3)c(=O)[nH]c2c1C` (centres undefined), for which the half-maximal activity concentration (AC50) under setting [2] is 1.84 µM [rising, partial curve].
Regarding `COc1cc(/C=N/O)cc(Br)c1OS(=O)(=O)c1ccc(C)cc1`, the cell number change was -67.3%. Besides, the AC50 under setting [1] is 10.3 µM [falling, partial curve]. Also, the AC50 under setting [2] is 4.61 µM [falling, full curve].
`Cc1ccc(NC(=O)CSc2nc(=O)n(CCN3CCOCC3)c3c2CCCC3)cc1`: the cell number change is -12.6%. Under setting [2], the concentration at half-maximal activity (AC50) is 29.1 µM [rising, single point].
In the case of `O=C(COc1ncnc2scc(-c3ccc(Cl)cc3)c12)NCc1ccco1`, the cell number change was -0.778%.
On to `COc1ccc(/C=N\NC(=O)c2sc(N)nc2C)cc1OC`, for which the cell number change is -12.2%. Besides, the AC50 under setting [2] was 13 µM [falling, partial curve, poor fit].
For the compound `CC(NC(=O)CN(C)CC(=O)Nc1ccccc1Br)c1ccccc1` (centres undefined), the cell number change stood at 7.87%.
The same measure, in the same setting: the result for `CC(C)=C1C(=O)NN(c2ccc(C)c(Cl)c2)C1=O` reads -20.4%.
For `CCOC(=O)Cn1nc(C)n(-c2c(C)cccc2C)c1=O`, the cell number change is -35.8%. The concentration at half-maximal activity (AC50) under setting [2] was 29.1 µM [falling, single point].
For the compound `Nc1cccc(-c2cnc3ccccc3n2)c1`, the cell number change is -18.9%. Under setting [2], the AC50 was 0.731 µM [falling, partial curve, poor fit].
On to `CCC(OC(=O)c1nsc(Cl)c1Cl)C(=O)NCc1ccco1` (centres undefined), for which the cell number change came out at 1.11%. Besides, the AC50 under setting [2] is 29.1 µM [falling, single point].
As for `O=C(NC1CC1)C1C2C3C4CC5C3C5C4C12` (centres undefined), the cell number change stood at 7.73%. The half-maximal activity concentration (AC50) under setting [2] is 16.4 µM [falling, partial curve, poor fit].
As to `Cc1ccc([N+](=O)[O-])cc1NC(=O)c1ccccc1`, the cell number change is 80.2%. Further, the AC50 under setting [1] is 3.66 µM [rising, full curve].
Regarding `O=C(OCCOc1ccc(F)cc1)c1ccc(S(=O)(=O)N2CCCC2)cc1`, the cell number change is -13.7%. Under setting [2], the AC50 is 7.31 µM [falling, partial curve, poor fit].
For `CC(=O)c1ccccc1NC(=O)CCCNC(=O)c1ccc(Cl)cc1`, the cell number change worked out at 19.2%.
On to `O=C(CN(Cc1ccccc1F)S(=O)(=O)c1ccc(Cl)cc1)NCCCO`, for which the cell number change turned out to be 1.15%. In addition, the AC50 under setting [2] is 4.11 µM [falling, full curve].
In the case of `NNC(=O)CSCc1nc(-c2ccc(Cl)cc2)cs1`, the cell number change worked out at 16%.
On to `CC(=O)N1CCN(c2ccc(NC(=O)c3cc4ccccc4o3)cc2)CC1`, for which the cell number change came out at 5.03%. Besides, the AC50 under setting [2] is 6.51 µM [falling, single point].
For `CCCCC1CCC(C(=O)Nc2ccccc2N2CCOCC2)CC1` (centres undefined), the cell number change is -32.9%. Under setting [1], the AC50 is 29.1 µM [falling, single point]. In addition, the AC50 under setting [2] was 32.6 µM [falling, single point].
As to `CNC(=O)CN(c1ccc(Oc2ccccc2)cc1)S(=O)(=O)c1ccc(C)cc1`, the cell number change amounted to 31.7%. Further, the concentration at half-maximal activity (AC50) under setting [1] was 32.6 µM [rising, single point]. Besides, the AC50 under setting [2] is 29.1 µM [rising, single point].
On to `CCC(C(=O)NC1CCCC1)N(C(=O)Cn1nnc(-c2ccc(OC)c(OC)c2)n1)c1cccc(O)c1` (centres undefined), for which the cell number change is -47.4%. Under setting [1], the AC50 was 32.6 µM [falling, partial curve].
Regarding `CC1CCCN(C(=O)CN2C(=O)c3ccccc3S2(=O)=O)C1` (centres undefined), the cell number change was 24.3%.
Consider `O=C(CSc1ccc2c(c1)OCCO2)NC(=O)Cc1ccccc1`, for which the cell number change is -14.2%. In addition, the half-maximal activity concentration (AC50) under setting [1] was 0.13 µM [falling, full curve, poor fit].
As to `CS(=O)(=O)N(CCc1ccccc1)CC(=O)NCc1ccccc1Cl`, the cell number change is -68%. In addition, the concentration at half-maximal activity (AC50) under setting [1] was 29.1 µM [falling, partial curve, poor fit]. Further, under setting [2], the half-maximal activity concentration (AC50) was 20.6 µM [falling, partial curve].
For the compound `CCC(C)N1CC23C=CC(O2)C(C(=O)OCc2ccccc2)C3C1=O` (centres undefined), the cell number change was -6.51%. For the same compound, the AC50 under setting [2] is 0.146 µM [falling, full curve, poor fit].
As to `O=C1c2ccccc2C(=O)c2c1ccc1c(=O)n(C3CCCCC3)[nH]c21`, the cell number change was -37.1%. The AC50 under setting [1] is 14.6 µM [falling, single point]. The AC50 under setting [2] is 11.6 µM [falling, partial curve].
Take `CCC(C)N1CNc2c(c(=O)[nH]c(=S)n2-c2cccc(C)c2)C1` (centres undefined): the cell number change was found to be 2.21%. Besides, under setting [2], the AC50 is 6.51 µM [falling, single point].
On to `Cc1cc(C)n2nc(C(=O)Nc3ccc4c(c3)CCC4)nc2n1`, for which the cell number change turned out to be 21.3%.
As for `Cc1ccc(/C=N/NC(=O)Cn2cnc3c2c(=O)n(C)c(=O)n3C)s1`, the cell number change is 24.8%. Further, the concentration at half-maximal activity (AC50) under setting [2] is 10.3 µM [rising, partial curve, poor fit].
On to `CC1CN(C(=O)COC(=O)c2cccc(NS(=O)(=O)c3ccccc3)c2)CC(C)O1` (centres undefined), for which the cell number change is -24.4%. Under setting [1], the concentration at half-maximal activity (AC50) is 2.59 µM [falling, full curve, poor fit]. Besides, under setting [2], the AC50 is 2.59 µM [falling, full curve].
As to `CCCOc1ccc(-c2nnn(CC(=O)Nc3cccc(C(=O)OC)c3)n2)cc1`, the cell number change was found to be 37.9%. Further, the half-maximal activity concentration (AC50) under setting [1] was 3.26 µM [rising, full curve, poor fit].
`CN(C)CC(O)CN(c1ccccc1)c1ccccc1` (centres undefined): the cell number change came to 7.58%. Under setting [2], the AC50 was 0.00461 µM [falling, full curve, poor fit].
Regarding `O=C(CCN1C(=O)/C(=C/c2cccc(Br)c2)SC1=S)NNC(=O)c1cccnc1`, the cell number change was -11.3%.
On to `Cc1nc(Cl)sc1C(=O)Nc1ccc(C(C)(C)C)cc1`, for which the AC50 under setting [2] was 6.51 µM [falling, single point].
In the case of `O=C1CCC(C(=O)N2CCN(c3ccccc3)CC2)CN1CC1CCCCC1` (centres undefined), under setting [1], the concentration at half-maximal activity (AC50) was 0.731 µM [rising, single point].
Consider `O=C(CSc1nccc(=O)[nH]1)c1ccco1`, for which the cell number change was -37.7%. Also, the concentration at half-maximal activity (AC50) under setting [1] was 0.731 µM [falling, full curve]. In addition, the concentration at half-maximal activity (AC50) under setting [2] was 0.58 µM [falling, full curve].
In the case of `COc1ccc(C2CC(c3ccc(OC)cc3)n3nc(NS(C)(=O)=O)nc3N2)cc1` (centres undefined), the cell number change was 0.826%. The half-maximal activity concentration (AC50) under setting [2] was 0.0058 µM [falling, full curve, poor fit].
Consider `O=C(CCc1nnc(-c2ccc3c(c2)OCO3)o1)NCCc1ccccc1F`, for which the half-maximal activity concentration (AC50) under setting [2] was 0.58 µM [falling, single point].
Turning to `COc1cc2ncnc(NCc3ccc(C)cc3)c2cc1OC`, the cell number change was -2.21%. For the same compound, the AC50 under setting [2] was 29.1 µM [falling, single point].
Take `O=C1ON=C(c2ccccc2)/C1=C/c1ccco1`: under setting [2], the AC50 is 29.1 µM [falling, single point].
Take `CCS(=O)(=O)N1CCN(c2nc(-c3ccccc3)cs2)CC1`: the cell number change is -0.0729%. Besides, the AC50 under setting [2] is 6.51 µM [rising, single point].
As for `O=C(COc1ccccc1)NCC(=O)Nc1cccc(S(=O)(=O)NC2=NCCC2)c1`, the cell number change was -42.1%. Moreover, the AC50 under setting [1] was 32.6 µM [falling, single point].
`Cc1cc(C)c2c(=O)[nH]c(SCC(=O)c3ccc(C(C)C)cc3)nc2n1`: the cell number change is -7.98%. The AC50 under setting [1] was 1.3 µM [falling, full curve, poor fit].
Turning to `COc1ccc(-c2cc(C(F)F)n3ncc(C(=O)N4CCN5CCCC5C4)c3n2)cc1` (centres undefined), the cell number change was -11.8%. Besides, the half-maximal activity concentration (AC50) under setting [2] was 5.8 µM [rising, single point].
As for `O=C1CC(N2CCC(c3nc4ccccc4[nH]3)CC2)C(=O)N1c1cccc(F)c1` (centres undefined), the cell number change is -24.6%. Also, the AC50 under setting [1] is 0.0731 µM [falling, full curve, poor fit]. In addition, the concentration at half-maximal activity (AC50) under setting [2] was 0.146 µM [falling, full curve, poor fit].
Regarding `Cn1c(=O)[nH]c2c(nc(-c3ccc(Cl)cc3)n2C)c1=O`, the cell number change was found to be 67.6%. Also, the half-maximal activity concentration (AC50) under setting [1] is 29.1 µM [rising, single point].
Turning to `CCCNC(=O)c1n[nH]c(=O)c2ccccc12`, the cell number change turned out to be 6.6%. Besides, the concentration at half-maximal activity (AC50) under setting [2] was 3.66 µM [rising, single point].
For the compound `NC12CC3CC(C1)CC(CC(=O)O)(C3)C2`, the cell number change is -24.3%.
In the case of `CCOCCCNC(=O)CN(c1cc([N+](=O)[O-])ccc1OC)S(C)(=O)=O`, the cell number change amounted to 0.723%. For the same compound, the AC50 under setting [2] was 2.06 µM [falling, partial curve].
`Cc1ccc(-n2nc3c(=O)n(CCCC(=O)N4CCCCC4)nc(C)c3c2C)cc1`: the cell number change was -1.42%.
For `Nc1cc(C(=O)OCC(=O)Nc2ccc(N3CCOCC3)cc2)ccc1Cl`, the cell number change was -12%. The AC50 under setting [2] was 4.11 µM [falling, full curve, poor fit].
In the case of `CNC(=O)c1c(C)nc(SCC(=O)NCc2ccc(OC)cc2)c(C#N)c1-c1ccco1`, the cell number change was -12.5%. Further, the AC50 under setting [2] was 6.51 µM [rising, partial curve, poor fit].
`Cc1cccn2c(=O)c(C=O)c(Cl)nc12`: the cell number change was found to be 19.2%.
For `CSCCC(NC(=O)c1ccccc1Br)C(=O)NC(C)CCc1ccccc1` (centres undefined), the cell number change came out at 22.4%. The AC50 under setting [2] is 11.2 µM [rising, single point].
